## Assay results

Data taken from PubChem BioAssay AID1918973, deposited by NCATS (2023).

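A 48-hour viability screen on one myeloma cell line, where an ATP-driven light signal reports how many cells remain.
Each drug was run as a concentration series, mostly reaching about 45.8 µM.
The number is the fitted AC50 for the drop in viability, and a lower value means a more potent drug.
Calls come from the NCATS curve-class scoring; inconclusive rows score 1 to 39 and cover weak, poorly fitted, top-dose-only or rising curves.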

Values are in µM.
Every entry below has the call inconclusive.
These entries are mostly ones the record files as inconclusive; other results of the assay are not listed here.
A potency from a partial, single-point or poor curve is only a rough figure.
The first word of each remark tells which way the curve ran; it can be opposite to the aim of the assay.
Activity scores are not listed here.

compound,fitted potency (µM),curve
C[C@](Cc1c[nH]c2ccccc12)(NC(=O)OC1C2CC3CC(C2)CC1C3)C(=O)NC[C@H](NC(=O)CCC(=O)O)c1ccccc1 (stereo partly specified),37.22,"cytotoxic, single point"
CC(C)(C)NC(=O)[C@H]1CN(Cc2cccnc2)CCN1C[C@@H](O)C[C@@H](Cc1ccccc1)C(=O)N[C@H]1c2ccccc2C[C@H]1O,23.48,"cytotoxic, partial curve, poor fit"
c1ccc2c(CN3CCNCC3)cccc2c1,0.5258,"rising, full curve, poor fit"
C[C@]12CC[C@H](O)CC1=CC[C@H]1[C@H]3CCC(=O)[C@@]3(C)CC[C@@H]12,0.1865,"cytotoxic, full curve, poor fit"
CCN(CC)CC#CCOC(=O)C(O)(c1ccccc1)C1CCCCC1 (stereo unspecified),33.17,"cytotoxic, single point"
CN(C)c1ccc(C(=O)NCCCCCCC(=O)NO)cc1,0.1663,"cytotoxic, full curve, poor fit"
CCN(CC)CCCCNc1ncc2c(n1)N(C)C(=O)N(c1c(Cl)c(OC)cc(OC)c1Cl)C2,0.0833,"cytotoxic, full curve, poor fit"
CC(C)c1cc(C(C)C)c(CC(=O)NS(=O)(=O)Oc2c(C(C)C)cccc2C(C)C)c(C(C)C)c1,0.0332,"cytotoxic, full curve, poor fit"
NC(=O)c1cccc2cn(-c3ccc([C@@H]4CCCNC4)cc3)nc12,11.77,"rising, partial curve, poor fit"
C[C@@H]1CC[C@@]2(OC1)OC1CC3C4CC=C5CC(O)CCC5(C)C4CCC3(C)C1[C@@H]2C (stereo partly specified),33.17,"cytotoxic, partial curve, poor fit"

Once more, the final 2:

{"compound": "NC(=O)c1cccc2cn(-c3ccc([C@@H]4CCCNC4)cc3)nc12", "fitted potency (µM)": "11.77", "curve": "rising, partial curve, poor fit"}
{"compound": "C[C@@H]1CC[C@@]2(OC1)OC1CC3C4CC=C5CC(O)CCC5(C)C4CCC3(C)C1[C@@H]2C", "stereo": "stereo partly specified", "fitted potency (µM)": "33.17", "curve": "cytotoxic, partial curve, poor fit"}